Measurements from article PMC6499331, “Transcriptional gene silencing requires dedicated interaction between HP1 protein Chp2 and chromatin remodeler Mit1” (Genes & Development, 2019).
These are yes or no findings as the source states them, for the method shown. For some of these results: Binding seen in cells or lysates may run through a third protein. Some entries that bind do so weakly or less than the wild type. Tags and fused reporters may be left off the sequences shown. Values belong to the binder of their own block, whether it stands above or below them.

Tests used:
[1] = biological target: T1, Mit1 (OneStrep-tagged, coexpressed in insect cells) (S. pombe) (UniProt Q9P793); experiment: pull-down; proteins coexpressed in Sf9 cells; OneStrep-tagged Mit1 constructs captured from the lysate on StrepTactin beads, 1 h at 4°C; 400 mM KCl, 100 mM Tris pH 7.5, 2 mM Mg-acetate, 5 mM β-mercaptoethanol, 0.1% NP40; eluted with desthiobiotin; Clr1MID included to stabilize the Mit1 C terminus
T1 sequence: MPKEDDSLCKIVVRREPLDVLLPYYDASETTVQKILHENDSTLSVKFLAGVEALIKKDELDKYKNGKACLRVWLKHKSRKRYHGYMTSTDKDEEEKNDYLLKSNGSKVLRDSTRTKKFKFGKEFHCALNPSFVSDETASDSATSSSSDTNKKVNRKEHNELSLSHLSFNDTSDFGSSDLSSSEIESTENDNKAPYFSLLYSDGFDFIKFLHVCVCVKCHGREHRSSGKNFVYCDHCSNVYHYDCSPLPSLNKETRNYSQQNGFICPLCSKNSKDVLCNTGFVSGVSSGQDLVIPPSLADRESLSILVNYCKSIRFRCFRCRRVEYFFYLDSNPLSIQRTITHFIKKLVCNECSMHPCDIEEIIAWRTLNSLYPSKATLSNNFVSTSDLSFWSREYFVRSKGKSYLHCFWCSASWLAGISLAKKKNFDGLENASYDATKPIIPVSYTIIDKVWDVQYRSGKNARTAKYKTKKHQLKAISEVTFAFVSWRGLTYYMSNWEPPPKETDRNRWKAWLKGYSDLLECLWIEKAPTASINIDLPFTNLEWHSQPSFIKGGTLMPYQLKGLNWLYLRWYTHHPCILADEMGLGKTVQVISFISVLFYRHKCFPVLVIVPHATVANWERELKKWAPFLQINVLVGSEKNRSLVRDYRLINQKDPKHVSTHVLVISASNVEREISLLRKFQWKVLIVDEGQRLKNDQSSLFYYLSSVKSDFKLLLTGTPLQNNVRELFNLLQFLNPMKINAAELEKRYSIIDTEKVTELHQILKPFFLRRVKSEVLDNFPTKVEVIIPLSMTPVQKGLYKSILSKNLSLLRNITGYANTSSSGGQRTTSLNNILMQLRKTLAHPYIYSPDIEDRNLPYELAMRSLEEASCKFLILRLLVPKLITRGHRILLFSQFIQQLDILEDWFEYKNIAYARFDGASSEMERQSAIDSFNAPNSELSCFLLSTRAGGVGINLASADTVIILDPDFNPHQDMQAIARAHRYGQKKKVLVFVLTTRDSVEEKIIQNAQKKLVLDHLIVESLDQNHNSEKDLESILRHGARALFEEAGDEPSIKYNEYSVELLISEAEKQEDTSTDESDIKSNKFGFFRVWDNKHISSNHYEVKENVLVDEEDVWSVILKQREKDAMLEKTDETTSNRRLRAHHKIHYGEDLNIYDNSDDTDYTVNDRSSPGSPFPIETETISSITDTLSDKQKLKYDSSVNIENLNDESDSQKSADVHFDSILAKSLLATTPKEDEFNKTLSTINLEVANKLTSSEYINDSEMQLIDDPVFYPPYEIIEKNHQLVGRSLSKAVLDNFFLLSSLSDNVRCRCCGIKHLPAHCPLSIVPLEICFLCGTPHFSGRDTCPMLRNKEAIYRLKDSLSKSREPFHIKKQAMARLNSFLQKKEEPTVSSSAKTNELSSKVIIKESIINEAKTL

[2] = biological target: T2, Mit1-13myc (endogenously tagged) (S. pombe) (UniProt Q9P793); experiment: co-IP; S. pombe lysate of endogenously tagged strains; Mit1-13myc captured on Myc-Trap_MA resin, 1 h; 50 mM HEPES pH 7.5, 300 mM NaCl, 1 mM EDTA, 5 mM CHAPS, 10 mM DTT
T2 sequence: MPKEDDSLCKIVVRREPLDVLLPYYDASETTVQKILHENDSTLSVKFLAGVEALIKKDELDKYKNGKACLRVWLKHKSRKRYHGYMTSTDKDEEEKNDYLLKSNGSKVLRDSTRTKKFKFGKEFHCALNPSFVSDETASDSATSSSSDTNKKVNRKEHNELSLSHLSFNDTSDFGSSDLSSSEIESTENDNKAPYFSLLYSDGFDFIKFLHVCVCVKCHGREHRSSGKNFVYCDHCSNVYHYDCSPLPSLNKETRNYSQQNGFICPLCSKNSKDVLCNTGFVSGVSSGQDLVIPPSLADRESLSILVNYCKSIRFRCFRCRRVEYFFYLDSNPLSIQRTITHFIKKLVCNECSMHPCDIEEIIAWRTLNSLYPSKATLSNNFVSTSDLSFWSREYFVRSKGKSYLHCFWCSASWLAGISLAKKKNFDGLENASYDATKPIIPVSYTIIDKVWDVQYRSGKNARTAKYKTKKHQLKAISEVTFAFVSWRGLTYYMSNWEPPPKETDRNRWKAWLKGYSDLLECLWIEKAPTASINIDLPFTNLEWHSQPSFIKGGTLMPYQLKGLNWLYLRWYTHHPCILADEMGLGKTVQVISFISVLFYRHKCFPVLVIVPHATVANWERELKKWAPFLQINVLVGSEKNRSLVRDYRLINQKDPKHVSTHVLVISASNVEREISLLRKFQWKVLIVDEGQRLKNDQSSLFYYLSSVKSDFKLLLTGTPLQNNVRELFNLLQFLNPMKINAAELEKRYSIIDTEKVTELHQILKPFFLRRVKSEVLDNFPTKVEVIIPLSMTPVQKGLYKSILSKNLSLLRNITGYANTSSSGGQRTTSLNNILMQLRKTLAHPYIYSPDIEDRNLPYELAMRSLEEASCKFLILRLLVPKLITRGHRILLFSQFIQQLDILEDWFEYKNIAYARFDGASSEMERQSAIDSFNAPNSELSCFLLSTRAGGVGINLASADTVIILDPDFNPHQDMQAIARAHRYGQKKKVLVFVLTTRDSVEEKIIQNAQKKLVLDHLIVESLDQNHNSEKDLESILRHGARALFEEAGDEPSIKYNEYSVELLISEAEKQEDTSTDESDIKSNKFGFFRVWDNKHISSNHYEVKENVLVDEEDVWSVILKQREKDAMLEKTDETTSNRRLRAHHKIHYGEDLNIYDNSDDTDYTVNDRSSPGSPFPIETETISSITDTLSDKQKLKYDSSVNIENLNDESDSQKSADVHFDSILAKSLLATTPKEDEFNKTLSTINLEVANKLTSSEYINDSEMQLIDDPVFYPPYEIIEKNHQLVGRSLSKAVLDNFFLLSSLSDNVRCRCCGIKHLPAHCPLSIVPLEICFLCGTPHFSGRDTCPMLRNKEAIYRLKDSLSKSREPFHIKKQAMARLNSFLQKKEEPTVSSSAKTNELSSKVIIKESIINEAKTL

[3] = biological target: T3, mit1ΔN-13myc (N-terminal 200 amino acids deleted) (S. pombe) (UniProt Q9P793); experiment: as above
T3 sequence: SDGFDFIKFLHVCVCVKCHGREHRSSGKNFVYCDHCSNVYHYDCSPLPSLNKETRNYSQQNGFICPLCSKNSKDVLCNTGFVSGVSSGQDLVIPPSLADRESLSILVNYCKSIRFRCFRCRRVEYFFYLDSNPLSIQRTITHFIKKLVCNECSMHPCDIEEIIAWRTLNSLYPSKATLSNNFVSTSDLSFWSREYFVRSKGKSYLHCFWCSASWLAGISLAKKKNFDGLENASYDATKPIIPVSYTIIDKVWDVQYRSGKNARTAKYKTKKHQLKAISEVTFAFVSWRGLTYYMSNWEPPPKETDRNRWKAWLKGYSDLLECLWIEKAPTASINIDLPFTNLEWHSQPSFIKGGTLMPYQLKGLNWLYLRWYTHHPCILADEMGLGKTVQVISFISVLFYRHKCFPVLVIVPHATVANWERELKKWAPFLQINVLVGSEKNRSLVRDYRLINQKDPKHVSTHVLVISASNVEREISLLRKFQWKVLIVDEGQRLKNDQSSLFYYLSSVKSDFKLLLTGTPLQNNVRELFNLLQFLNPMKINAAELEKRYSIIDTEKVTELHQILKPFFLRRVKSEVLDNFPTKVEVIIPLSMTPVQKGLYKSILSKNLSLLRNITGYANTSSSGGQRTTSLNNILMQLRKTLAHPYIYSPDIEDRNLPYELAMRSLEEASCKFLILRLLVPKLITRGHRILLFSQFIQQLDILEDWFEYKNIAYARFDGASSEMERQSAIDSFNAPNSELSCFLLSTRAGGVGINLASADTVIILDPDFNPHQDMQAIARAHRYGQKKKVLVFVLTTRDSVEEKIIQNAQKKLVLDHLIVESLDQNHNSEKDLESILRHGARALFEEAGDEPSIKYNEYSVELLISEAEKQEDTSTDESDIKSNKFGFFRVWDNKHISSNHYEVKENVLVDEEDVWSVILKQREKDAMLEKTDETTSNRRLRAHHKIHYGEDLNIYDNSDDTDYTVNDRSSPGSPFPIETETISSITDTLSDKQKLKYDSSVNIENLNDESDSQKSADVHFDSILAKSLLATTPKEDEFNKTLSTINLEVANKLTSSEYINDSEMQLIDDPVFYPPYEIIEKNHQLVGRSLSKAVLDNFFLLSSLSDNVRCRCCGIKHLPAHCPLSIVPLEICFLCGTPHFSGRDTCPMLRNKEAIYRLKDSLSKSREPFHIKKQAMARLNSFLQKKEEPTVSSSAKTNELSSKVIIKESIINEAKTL

[4] = biological target: T4, Mit1(1-81), Chp2 interaction interface (CII), tag removed (S. pombe) (UniProt Q9P793); experiment: crystal structure; Mit1(1-81)–Chp2(316-380), coexpressed in E. coli, purified as a complex; hanging drops at 18°C, 2.4 M sodium malonate pH 7, 3% 1,6-hexanediol; 1.6 Å; both purified
T4 sequence: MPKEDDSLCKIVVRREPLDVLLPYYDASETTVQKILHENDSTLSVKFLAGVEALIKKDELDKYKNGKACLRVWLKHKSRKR

binding [1]: binds
B1: Chp2 (T7-tagged, coexpressed in insect cells) (protein, UniProt O42934 1-380)
chain: MVKSADLDLMNSIISESDENFSPPPFTVEEAENSINNKSSTASLESPQNGSWHPSLYGLSVPEKTHIQNSLDLYSHGNSGSQKTHNVSFSCEIRKVKSSKLSPISNMEDSEDKKEEDESSSYKNEFKSSSSASVSSNFEKTSGSDDHNSQSPVPLNEGFEYIASSGSEDKNSDEEFAVEMILDSRMKKDGSGFQYYLKWEGYDDPSDNTWNDEEDCAGCLELIDAYWESRGGKPDLSSLIRLTRSRARSSNEASYVEKDESSNSDDSISYKRRRSRNAANRITDYVDSDLSESSMKEKQSKIEKYMKSDKSSKNFKPPFQKKSWEDLVDCVKTVQQLDNGKLIAKIKWKNGYVSTHDNIIIHQKCPLKIIEYYEAHIKFT

binding [2]: binds | binding [3]: no binding
B2: 6xFlag-Chp2 (endogenously tagged) (protein, UniProt O42934 1-380)
chain: MVKSADLDLMNSIISESDENFSPPPFTVEEAENSINNKSSTASLESPQNGSWHPSLYGLSVPEKTHIQNSLDLYSHGNSGSQKTHNVSFSCEIRKVKSSKLSPISNMEDSEDKKEEDESSSYKNEFKSSSSASVSSNFEKTSGSDDHNSQSPVPLNEGFEYIASSGSEDKNSDEEFAVEMILDSRMKKDGSGFQYYLKWEGYDDPSDNTWNDEEDCAGCLELIDAYWESRGGKPDLSSLIRLTRSRARSSNEASYVEKDESSNSDDSISYKRRRSRNAANRITDYVDSDLSESSMKEKQSKIEKYMKSDKSSKNFKPPFQKKSWEDLVDCVKTVQQLDNGKLIAKIKWKNGYVSTHDNIIIHQKCPLKIIEYYEAHIKFT

binding [4]: binds
B3: Chp2CSD, Chp2(316-380), untagged, coexpressed with Mit1 fragments (domain or fragment, S. pombe, UniProt O42934 316-380, looked up)
chain: KPPFQKKSWEDLVDCVKTVQQLDNGKLIAKIKWKNGYVSTHDNIIIHQKCPLKIIEYYEAHIKFT
notes: Chp2, S. pombe, chromoshadow domain, residues 316-380; Cloned without tag into pACE2 for coexpression; Limits 316-380 are printed for the crystallised complex; also called chromo shadow domain of Chp2; Chp2CSD2; source: E. coli BL21(DE3) or Rosetta (DE3), coexpressed with Mit1 fragments, purified as a complex
